Results from paper PMC10874384.
These are yes or no findings as the source states them, for the method shown. Binding calls can cover weak binding; strength is not graded here.

The chains behind the UniProt entries cited, without tags or fusion partners. Where a name states a change or a piece, a line headed by the entry shows the natural chain unless it says otherwise.
UniProt Q09490: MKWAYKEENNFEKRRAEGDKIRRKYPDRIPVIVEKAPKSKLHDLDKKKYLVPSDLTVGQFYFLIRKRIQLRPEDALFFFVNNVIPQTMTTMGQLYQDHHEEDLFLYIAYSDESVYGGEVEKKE
UniProt Q9U389: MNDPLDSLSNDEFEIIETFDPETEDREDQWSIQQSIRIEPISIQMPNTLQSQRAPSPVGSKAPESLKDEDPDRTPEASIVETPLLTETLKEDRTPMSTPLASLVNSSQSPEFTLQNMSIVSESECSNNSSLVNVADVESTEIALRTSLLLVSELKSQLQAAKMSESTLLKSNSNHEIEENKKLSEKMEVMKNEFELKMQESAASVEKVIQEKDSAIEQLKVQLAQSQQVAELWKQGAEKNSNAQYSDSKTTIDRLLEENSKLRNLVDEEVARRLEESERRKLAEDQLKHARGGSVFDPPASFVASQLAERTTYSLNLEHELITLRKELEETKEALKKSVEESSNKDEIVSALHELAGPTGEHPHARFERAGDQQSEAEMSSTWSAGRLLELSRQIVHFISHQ

Molecular target: LGG-1 (LC3, GABARAP, and GATE-16 family-1), yeast two-hybrid fusion (C. elegans) (UniProt Q09490)
Test: two-hybrid; DupLEX-A system: bait plasmid pEG202Gtwy and prey plasmid pJG4-5Gtwy in yeast EGY48 with the lacZ reporter plasmid pSH18-34; transformants on X-gal plates; which partner was bait is not stated

binding | Substance
binds | ALLO-1 D11A, yeast two-hybrid fusion (from UniProt Q9U389)
binds | ALLO-1 D11A/E12A (FIR mutant), yeast two-hybrid fusion (from UniProt Q9U389)
binds | ALLO-1 E12A, yeast two-hybrid fusion (from UniProt Q9U389)
